These are yes or no findings as the source states them, for the method shown. Some entries that bind do so weakly or less than the wild type.
Key:
human CCX-CKR2 (human) [1] = biological target: human CCX-CKR2 (human) (UniProt P25106); experiment: immunohistochemical staining of cytospins
human CCX-CKR2 (human) [2] = biological target: human CCX-CKR2 (human) (UniProt P25106); experiment: flow cytometry on transfectant cell lines and on HeLa and MCF-7 cells
human CCX-CKR2 (human) [3] = biological target: human CCX-CKR2 (human) (UniProt P25106); experiment: radioligand competitive binding assay; competitors SDF-1 and I-TAC; 11G8 typically exhibited a greater percentage inhibition than 6E10
human CCX-CKR2 (human) [4] = biological target: human CCX-CKR2 (human) (UniProt P25106); experiment: radioligand competitive binding assay; competitors SDF-1 and I-TAC

Sequences of proteins named here, by UniProt entry; tags and fusion partners are left off.
UniProt P25106: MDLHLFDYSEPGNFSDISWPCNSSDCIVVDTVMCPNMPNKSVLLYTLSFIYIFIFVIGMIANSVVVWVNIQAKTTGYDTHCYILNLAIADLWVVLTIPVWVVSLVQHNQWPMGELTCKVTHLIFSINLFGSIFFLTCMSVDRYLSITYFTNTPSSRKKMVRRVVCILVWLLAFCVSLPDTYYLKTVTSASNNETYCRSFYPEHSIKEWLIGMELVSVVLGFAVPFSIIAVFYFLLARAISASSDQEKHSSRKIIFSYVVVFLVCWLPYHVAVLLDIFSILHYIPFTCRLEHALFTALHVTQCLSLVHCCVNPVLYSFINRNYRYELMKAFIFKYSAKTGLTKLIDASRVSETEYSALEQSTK

Measured: binding

B1: monoclonal antibody 11G8 (antibody, V domains shown)
VH: EVKLVESGGDLVQPGGSLKLSCATSGFTFSDYYMFWVRQTPEKRLEWVAYITNGGDRSYYSDTVTGRFIISRDNAKNTLYLQMSRLKSEDTAMYYCARQGNWAAWFVYWGQGTLVTVSA
VL: DVLMTQTPLSLPVSLGDQASISCRSSHYIVHSDGNTYLEWYLQKPGQSPKLLIYKVSNRFSGVPDRFSGSGSGTDFTLKISRVEAEDLGIYYCFQGSHVPLTFGAGTKLELKR
notes: Mouse hybridoma monoclonal antibody raised by gene gun inoculation with CCX-CKR2 cDNA
binds: human CCX-CKR2 (human) [1] | human CCX-CKR2 (human) [2] | human CCX-CKR2 (human) [3]

B2: monoclonal antibody 6E10 (antibody, V domains shown)
VH: EVKLDETGGGLVQPGRPMKLSCVASGFTFSDYWMNWVRQSPEKGLEWVGQIRNKPYNYETYYSDSVKGRFTISRDDSKSSVYLQMNNLRTEDTGIYYCTSLRYWGQGTLVTVSA
VL: DIVMTQSPSSLTVTAGEKVTMSCKSSHSLLNSGIQKNFLTWYQQKPGQPPKVLIYWAFTRESGVPERFTGSGSGTDFTLTISSVQAEDLAVYYCQSDYTYPFTFGSGTKLEIKR
notes: as for B1
binds: human CCX-CKR2 (human) [1] | human CCX-CKR2 (human) [2] | human CCX-CKR2 (human) [4]

Source: US20060257410A1 (CHEMOCENTRYX, published 2006)
